# Test results taken from patent US6790942 (dated 2004).
# Assay: peptide synthesis
# Settings: late stage modification step
substance,measurement,value
Nps-Thr(tBu)-Ser(tBu)-Asp(OtBu)-Tyr(tBu)-Ser(tBu)-Lys-(Boc)-Tyr(tBu)-Leu-Asp(OtBu)-OH,step yield,90%
